Measurements as given in publication doi:10.1101/2021.01.13.426390.

Protein sequences, listed by entry. Tags and fused reporters are not part of them. Lines headed by an entry give the natural chain unless they say otherwise; changes in a name come on top.
UniProt O14763: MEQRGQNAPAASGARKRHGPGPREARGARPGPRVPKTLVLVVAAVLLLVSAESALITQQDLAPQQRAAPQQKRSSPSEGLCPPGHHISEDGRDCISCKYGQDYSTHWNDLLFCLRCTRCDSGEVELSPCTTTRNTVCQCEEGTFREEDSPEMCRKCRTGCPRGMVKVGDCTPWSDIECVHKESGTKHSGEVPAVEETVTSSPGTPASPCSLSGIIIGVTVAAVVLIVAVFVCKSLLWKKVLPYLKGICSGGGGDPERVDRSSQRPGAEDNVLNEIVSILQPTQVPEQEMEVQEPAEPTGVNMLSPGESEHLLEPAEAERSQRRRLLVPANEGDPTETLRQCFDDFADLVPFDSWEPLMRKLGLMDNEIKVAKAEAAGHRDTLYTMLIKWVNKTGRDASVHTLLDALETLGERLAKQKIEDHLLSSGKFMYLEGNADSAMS

Target: T1, ERp44 (human (endogenous in T47D, BT474, MDA-MB-468)) (UniProt Q9BS26)
T1 sequence: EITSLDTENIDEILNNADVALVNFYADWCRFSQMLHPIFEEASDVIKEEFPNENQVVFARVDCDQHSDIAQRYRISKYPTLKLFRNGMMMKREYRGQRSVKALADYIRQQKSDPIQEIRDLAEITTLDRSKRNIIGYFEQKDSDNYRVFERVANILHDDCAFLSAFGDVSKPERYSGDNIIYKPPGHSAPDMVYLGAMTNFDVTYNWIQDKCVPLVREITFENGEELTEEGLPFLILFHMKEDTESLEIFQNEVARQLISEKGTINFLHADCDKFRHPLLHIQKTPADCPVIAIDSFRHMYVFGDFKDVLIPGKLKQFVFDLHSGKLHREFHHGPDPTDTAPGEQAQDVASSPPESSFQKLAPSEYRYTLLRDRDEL
Test: co-IP

binding: binds weakly
Substance: DR5[Δ81-178] (from UniProt O14763) (receptor)

Results are given in words; binding and its absence hold for the method and conditions named. Binding seen in cells or lysates may run through a third protein. A result given as binding can be weak or reduced; the word gives no strength.
